Structures can show the parent of a compound that is named as a salt. Where two headings read alike, the source gives them in different places. About 60 (2%) of roughly 3,300 compounds showed an effect of 50% or more. The list shows a part of the results.
Tested on: HCoV-OC43
Set-up: species or system RD; HTS, protection from HCoV-OC43 induced cell death, luminescent cell viability (CellCounting-Lite 2.0), inhibition rate
Conditions: 24 h post infection, 1 h compound pre-incubation, 10 µM, inhibitor

Structure (SMILES)	OC43 Inhibition rate	OC43 Inhibition rate (OC43 Inhibition rate, 24 h)
OC[C@H]1O[C@@H](Oc2cc(O)cc(/C=C/c3ccc(O)cc3)c2)[C@H](O)[C@@H](O)[C@@H]1O [Polydatin]	0.4%	–
C/C=C1/CN2CCc3c([nH]c4ccccc34)[C@@H]2C[C@@H]1/C(=C/OC)C(=O)OC [Geissoschizine methyl ether]	-0.1%	–
O=c1c(O)c(-c2ccc(O)cc2O)oc2cc(O)cc(O)c12 [Morin]	-1%	–
NC(=O)NCCCC(N)C(=O)O (stereo not drawn) [2-Amino-5-ureidopentanoic acid]	-5.8%	–
O=C(O)CC(C(=O)O)C(O)C(=O)O (racemic) [DL-Isocitric acid (trisodium salt)]	2.5%	–
C=C1CC[C@@H]2[C@](C)(CO)[C@H](O)CC[C@@]2(C)[C@H]1C/C=C1\C=COC1=O [Dehydroandrographolide]	0.2%	–
O=c1c(-c2ccc(O)cc2)coc2cc(O[C@@H]3O[C@H](CO)[C@@H](O)[C@H](O)[C@H]3O)ccc12 [Daidzin]	3.9%	–
N[C@@H](Cc1c[nH]c2ccc(O)cc12)C(=O)O [5-Hydroxytryptophan]	–	6.4%
NC(CCS)C(=O)O (racemic) [DL-Homocysteine]	-2.9%	–
COc1ccc2c(c1)[nH]c1c(C)nccc12 [Harmine (hydrochloride)]	–	7.2%
COc1cc(O)c2c(c1)O[C@H](c1cc(O)cc(O)c1)CC2=O [Blumeatin]	2.8%	–
COC(=O)/C=C/C(C)=C\C=C\C(C)=C\C=C\C=C(C)\C=C\C=C(C)\C=C\C(=O)O [Bixin]	-1.7%	–
C=C1[C@H]2C[C@@]3([C@@H]1O)[C@@H](CC2=O)[C@]12[C@@H]4C[C@H]3[C@H]1N(CC)C[C@]4(C)CC[C@@H]2O [Songorine]	1.3%	–
O=C1c2ccccc2C(=O)c2c1ccc(O)c2O [Alizarin]	1.3%	–
COc1cc(O)ccc1/C=C/C(=O)c1ccc(O)cc1 [Echinatin]	46.1%	–
CC(C)=CCC[C@](C)(O)[C@@H]1CC=C(C)CC1 [Levomenol]	–	-0.7%
COC(=O)C1=CO[C@@H](O[C@@H]2O[C@H](CO)[C@@H](O)[C@H](O)[C@H]2O)[C@@H]2[C@@]3(C)O[C@H]3[C@@H](O)[C@]12O [Sesamoside]	-1.2%	–
Cn1ccc(=O)n(C)c1=O [1,3-Dimethyluracil]	-0.2%	–
COc1ccc([C@@H]2CC(=O)c3c(O)cc(O[C@@H]4O[C@H](CO)[C@@H](O)[C@H](O)[C@H]4O[C@@H]4O[C@@H](C)[C@H](O)[C@@H](O)[C@H]4O)cc3O2)cc1O [Neohesperidin]	-0.6%	–
CC(C)=CCC[C@]1(C)CC[C@]2(C)[C@H]3CC[C@@]4(C)[C@@H](CCC(=O)[C@@H]4C)[C@]3(C)CC[C@@]2(C)C1 [Shionone]	2.2%	–

Taken from above:
In OC43 Inhibition rate, `C=C1CC[C@@H]2[C@](C)(CO)[C@H](O)CC[C@@]2(C)[C@H]1C/C=C1\C=COC1=O` [Dehydroandrographolide] reads 0.2%
In OC43 Inhibition rate, `C=C1[C@H]2C[C@@]3([C@@H]1O)[C@@H](CC2=O)[C@]12[C@@H]4C[C@H]3[C@H]1N(CC)C[C@]4(C)CC[C@@H]2O` [Songorine] reads 1.3%

Further records:

Structure (SMILES)	OC43 Inhibition rate	OC43 Inhibition rate (OC43 Inhibition rate, 24 h)
O=C(/C=C/c1ccc(O)c(O)c1)OCCc1ccccc1 [Caffeic acid phenethyl ester]	3%	–
O=c1cc(-c2ccc(O[C@@H]3O[C@H](CO)[C@@H](O)[C@H](O)[C@H]3O)cc2)oc2cc(O)c([C@@H]3O[C@H](CO)[C@@H](O)[C@H](O)[C@H]3O[C@@H]3OC[C@H](O)[C@H](O)[C@H]3O)c(O)c12 [Vaccarin]	0%	–
O=C(O)C(O)O [2,2-Dihydroxyacetic acid]	-0.7%	–
C[C@H](CCC(=O)O)[C@H]1CC[C@H]2[C@@H]3[C@H](O)C[C@@H]4C[C@H](O)CC[C@]4(C)[C@H]3CC[C@]12C [Chenodeoxycholic Acid]	4.3%	–
O=C(O)C(O)c1ccccc1 (stereo not drawn) [Mandelic acid]	0%	–
O=C(O)/C=C\c1cc2ccoc2cc1O[C@@H]1O[C@H](CO)[C@@H](O)[C@H](O)[C@H]1O [Psoralenoside]	0.4%	–
CN1CCC=C(C(=O)O)C1 [Arecaidine]	–	-6.2%
c1cncc(C2=NCCC2)c1 [Myosmine]	-0.2%	–
COC(=O)c1ccccc1O[C@@H]1O[C@H](CO[C@@H]2OC[C@@H](O)[C@H](O)[C@H]2O)[C@@H](O)[C@H](O)[C@H]1O [Gaultherin]	2.1%	–
Cn1c(=O)[nH]c2[nH]cnc2c1=O [1-Methylxanthine]	-0.9%	–
CC[C@H](C)C(=O)O[C@H]1CCC=C2C=C[C@H](C)[C@H](CC[C@@H]3C[C@@H](O)CC(=O)O3)[C@H]21 [Mevastatin]	12.2%	–
CC(=O)O[C@H]1C[C@@]2(O)[C@@H](OC(=O)c3ccccc3)[C@@H]3[C@]4(OC(C)=O)CO[C@@H]4C[C@H](O)[C@@]3(C)[C@@H](O)[C@H](OC(C)=O)C(=C1C)C2(C)C [9-Dihydro-13-acetylbaccatin III]	-1.1%	–
Cc1nc(C)c(C)nc1C [Ligustrazine]	-0.2%	–
C=C1C[C@@]23CC[C@H]4[C@@](C)(CCC[C@@]4(C)C(=O)O)[C@@H]2CC[C@]1(O[C@@H]1O[C@H](CO)[C@@H](O)[C@H](O[C@@H]2O[C@H](CO)[C@@H](O)[C@H](O)[C@H]2O)[C@H]1O[C@@H]1O[C@H](CO)[C@@H](O)[C@H](O)[C@H]1O)C3 [Rebaudioside B]	0%	–
CC1(C)[C@H](O)CC[C@@]2(C)[C@@H]3CC[C@](C)([C@@H](O)CO[C@@H]4O[C@H](CO)[C@@H](O)[C@H](O)[C@H]4O)C=C3CC[C@H]12 [Darutoside]	1.8%	–
CN1C(=O)/C(=C2/C(=O)Nc3ccccc32)c2ccccc21 [Meisoindigo]	-0.3%	–
CO[C@@H]1O[C@H](CO)[C@H](O)[C@H](O)[C@H]1O [Methyl β-D-Galactopyranoside]	-6.2%	–
COC(=O)C1=CC[C@@]23CC[C@@H]([C@@](C)(/C=C/C=C(\C)C(=O)O)OC2=O)[C@@]3(OC(C)=O)CC1 [Pseudolaric Acid B]	0.7%	–
C=C1C(=O)O[C@@H]2/C=C(\C)[C@@H](OC(C)=O)C/C=C(\COC(C)=O)C[C@@H](OC(=O)/C(C)=C/CO)[C@@H]12 [Eupalinolide B]	–	1.7%
